Measurements taken from US20160184454A1, “RAB7L1 INTERACTS WITH LRRK2 TO MODIFY INTRANEURONAL PROTEIN SORTING AND PARKINSON'S DISEASE RISK” (THE TRUSTEES OF COLUMBIA UNIVERSITY IN THE CITY OF NEW YORK, priority 2013, published 2016).
These are yes or no findings as the source states them, for the method shown. For part of these data: In cells and extracts the contact can be indirect. Some binding calls cover weakened binding; strength is not graded here. For part of these data: Where a sequence is shown, tags or fusion partners need not be part of it. Each block holds one molecule with its values, some of them ahead of it.

The chains behind the UniProt entries cited, without tags or fusion partners. Where a name states a change or a piece, a line headed by the entry shows the natural chain unless it says otherwise.
UniProt Q5S007: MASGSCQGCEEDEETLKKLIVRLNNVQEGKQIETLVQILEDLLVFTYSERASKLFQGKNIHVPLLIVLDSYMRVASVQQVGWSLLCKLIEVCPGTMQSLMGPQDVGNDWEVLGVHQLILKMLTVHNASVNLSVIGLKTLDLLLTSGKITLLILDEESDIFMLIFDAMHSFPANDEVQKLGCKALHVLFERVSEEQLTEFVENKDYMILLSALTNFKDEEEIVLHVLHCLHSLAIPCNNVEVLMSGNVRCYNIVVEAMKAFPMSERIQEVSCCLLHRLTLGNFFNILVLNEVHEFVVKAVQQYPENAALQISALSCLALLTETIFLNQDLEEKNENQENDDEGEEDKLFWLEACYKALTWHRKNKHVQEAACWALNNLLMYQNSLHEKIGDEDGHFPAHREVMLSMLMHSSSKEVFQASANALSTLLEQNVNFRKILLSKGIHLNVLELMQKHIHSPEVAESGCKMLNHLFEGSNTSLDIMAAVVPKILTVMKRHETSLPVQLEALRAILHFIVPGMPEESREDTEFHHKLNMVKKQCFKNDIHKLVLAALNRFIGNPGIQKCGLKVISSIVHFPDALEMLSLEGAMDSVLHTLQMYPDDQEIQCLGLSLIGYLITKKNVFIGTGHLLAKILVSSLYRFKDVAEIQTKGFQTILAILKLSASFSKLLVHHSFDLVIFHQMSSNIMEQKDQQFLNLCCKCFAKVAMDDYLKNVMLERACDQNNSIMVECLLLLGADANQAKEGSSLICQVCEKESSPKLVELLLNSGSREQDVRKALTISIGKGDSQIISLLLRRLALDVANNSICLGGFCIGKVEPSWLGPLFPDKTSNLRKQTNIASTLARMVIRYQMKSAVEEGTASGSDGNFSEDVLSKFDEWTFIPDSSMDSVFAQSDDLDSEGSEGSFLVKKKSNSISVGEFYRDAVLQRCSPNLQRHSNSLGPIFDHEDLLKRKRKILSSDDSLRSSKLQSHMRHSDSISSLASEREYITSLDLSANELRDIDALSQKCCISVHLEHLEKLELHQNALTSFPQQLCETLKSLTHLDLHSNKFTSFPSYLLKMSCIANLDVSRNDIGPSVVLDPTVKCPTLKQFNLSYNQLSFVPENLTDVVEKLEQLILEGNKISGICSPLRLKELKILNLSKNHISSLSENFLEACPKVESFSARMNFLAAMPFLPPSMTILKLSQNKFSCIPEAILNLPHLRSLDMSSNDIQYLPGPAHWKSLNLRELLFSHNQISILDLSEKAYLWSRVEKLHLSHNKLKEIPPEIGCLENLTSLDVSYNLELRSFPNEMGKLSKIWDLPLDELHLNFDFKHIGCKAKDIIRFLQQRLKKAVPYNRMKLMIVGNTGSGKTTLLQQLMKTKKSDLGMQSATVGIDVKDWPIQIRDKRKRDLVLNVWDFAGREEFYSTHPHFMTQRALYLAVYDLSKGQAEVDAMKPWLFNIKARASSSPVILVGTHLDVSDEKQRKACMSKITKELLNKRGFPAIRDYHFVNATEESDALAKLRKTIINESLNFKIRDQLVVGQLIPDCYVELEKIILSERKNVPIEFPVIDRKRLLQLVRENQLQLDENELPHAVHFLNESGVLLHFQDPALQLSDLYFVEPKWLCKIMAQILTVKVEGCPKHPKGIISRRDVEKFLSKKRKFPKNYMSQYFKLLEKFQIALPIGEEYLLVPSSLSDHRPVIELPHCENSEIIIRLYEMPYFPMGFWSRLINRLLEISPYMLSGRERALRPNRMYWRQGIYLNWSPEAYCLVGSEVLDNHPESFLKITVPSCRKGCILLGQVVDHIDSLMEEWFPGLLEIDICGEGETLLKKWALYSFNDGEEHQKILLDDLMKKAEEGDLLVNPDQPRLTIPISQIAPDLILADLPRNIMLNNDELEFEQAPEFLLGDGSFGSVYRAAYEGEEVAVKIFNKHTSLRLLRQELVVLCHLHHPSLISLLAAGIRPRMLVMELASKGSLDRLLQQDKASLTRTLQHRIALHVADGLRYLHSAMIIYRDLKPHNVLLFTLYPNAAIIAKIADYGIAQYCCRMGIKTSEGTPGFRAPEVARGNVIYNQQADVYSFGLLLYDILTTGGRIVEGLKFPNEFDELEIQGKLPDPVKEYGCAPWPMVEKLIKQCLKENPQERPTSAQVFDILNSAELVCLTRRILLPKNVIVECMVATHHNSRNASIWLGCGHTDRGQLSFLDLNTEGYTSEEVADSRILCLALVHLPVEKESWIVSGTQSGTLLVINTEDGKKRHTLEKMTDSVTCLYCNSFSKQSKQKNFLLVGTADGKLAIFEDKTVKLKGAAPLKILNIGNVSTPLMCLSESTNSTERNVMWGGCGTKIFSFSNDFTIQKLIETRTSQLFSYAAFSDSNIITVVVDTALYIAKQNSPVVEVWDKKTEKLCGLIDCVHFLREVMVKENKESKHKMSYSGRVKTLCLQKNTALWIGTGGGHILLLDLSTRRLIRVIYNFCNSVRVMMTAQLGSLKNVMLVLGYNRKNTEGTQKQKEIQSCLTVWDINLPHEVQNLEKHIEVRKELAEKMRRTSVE

What was measured:
[1] = target: T1, GFP-RAB7L1 fusion protein, wild type (N-terminally GFP-tagged rat RAB7L1) (rat) (UniProt Q63481); experiment: co-immunoprecipitation with anti-Flag antibody from co-transfected HEK293T lysates
T1 sequence (looked up): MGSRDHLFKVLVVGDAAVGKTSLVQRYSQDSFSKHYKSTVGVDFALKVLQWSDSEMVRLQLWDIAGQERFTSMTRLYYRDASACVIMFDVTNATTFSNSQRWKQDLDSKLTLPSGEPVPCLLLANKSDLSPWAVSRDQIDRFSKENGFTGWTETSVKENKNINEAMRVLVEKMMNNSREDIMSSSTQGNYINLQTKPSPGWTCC

[2] = target: T1, GFP-RAB7L1 fusion protein, wild type (N-terminally GFP-tagged rat RAB7L1) (rat); experiment: co-immunoprecipitation with anti-Flag antibody from co-transfected HEK293T lysates, probed for RAB7L1 (GFP)
[3] = target: T1, GFP-RAB7L1 fusion protein, wild type (N-terminally GFP-tagged rat RAB7L1) (rat); experiment: summary of the co-immunoprecipitation studies (discussion)
[4] = target: T2, RAB7L1 protein in mouse brain lysate (endogenous) (mouse) (UniProt Q91YQ1); experiment: immunoprecipitation of LRRK2 with a rabbit monoclonal antibody from transgenic mouse brain lysates, Western blot for RAB7L1
T2 sequence (looked up): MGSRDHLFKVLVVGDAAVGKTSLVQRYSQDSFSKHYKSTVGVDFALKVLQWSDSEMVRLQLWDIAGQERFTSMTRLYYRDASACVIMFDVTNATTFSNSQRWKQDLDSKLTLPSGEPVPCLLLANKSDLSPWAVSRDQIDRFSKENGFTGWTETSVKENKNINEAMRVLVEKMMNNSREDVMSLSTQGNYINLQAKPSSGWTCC

[5] = target: 3×flag (3FL) epitope-tagged LRRK2, wild type [WT] (human) (UniProt Q5S007); experiment: co-immunoprecipitation with anti-GFP antibody from co-transfected HEK293T lysates, immunoblot for LRRK2

binding [1]: binds
Molecule: 3×flag (3FL) epitope-tagged LRRK2 G2019S [GS] (from UniProt Q5S007 1-2527) (enzyme)

binding [1]: binds
Molecule: 3×flag (3FL) epitope-tagged LRRK2 K1906M [KM], kinase-dead variant (from UniProt Q5S007 1-2527) (enzyme)

The remaining lines, values behind:

Molecule: 3×flag (3FL) epitope-tagged LRRK2, wild type [WT] (from UniProt Q5S007 1-2527) (enzyme)
binding [2]: binds
binding [3]: binds

Molecule: human LRRK2 R1441C, familial PD mutant form (BAC transgene, mouse brain) (from UniProt Q5S007 1-2527) (enzyme)
binding [4]: binds

B1: GFP-RAB7L1 fusion protein, wild type (N-terminally GFP-tagged rat RAB7L1) (enzyme, UniProt Q63481 1-204, looked up, not shown: large carriers)
chain: MGSRDHLFKVLVVGDAAVGKTSLVQRYSQDSFSKHYKSTVGVDFALKVLQWSDSEMVRLQLWDIAGQERFTSMTRLYYRDASACVIMFDVTNATTFSNSQRWKQDLDSKLTLPSGEPVPCLLLANKSDLSPWAVSRDQIDRFSKENGFTGWTETSVKENKNINEAMRVLVEKMMNNSREDIMSSSTQGNYINLQTKPSPGWTCC
binding [5]: binds
